{"source": "the supplement of paper PMC4604168 (melanoma cell lines)", "note": "Some of the results follow. Single values are uncertain, as repeats are few or missing.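 Imaging used 1,536-well plates; nuclei positive for cleaved PARP by antibody were divided by total DNA-stained nuclei to yield the apoptosis fraction. Doses for screening kept most cells viable, and cell lines differ markedly in resting and induced cleaved-PARP levels.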", "data": [{"tested_on": "COLO829", "assay": "cleaved PARP positive nuclei fraction relative to DMSO control; melanoma cells; higher = more apoptosis", "details": "library dose: low library concentration; 72 h", "units": {"cleaved PARP positive nuclei fraction": "%"}, "values": [{"smiles": "Nc1ncn([C@H]2C[C@H](O)[C@@H](CO)O2)c(=O)n1", "note": "[decitabine] + Cc1cc(N2CCOCC2)cc2[nH]c(-c3c(NC[C@@H](O)c4cccc(Cl)c4)cc[nH]c3=O)nc12 [BMS536924] (first compound 0.1 µM, partner dose 0.2 µM)", "cleaved PARP positive nuclei fraction": 94.7}, {"smiles": "Cn1c(=O)n(-c2ccc(C(C)(C)C#N)cc2)c2c3cc(-c4cnc5ccccc5c4)ccc3ncc21", "note": "+ NCC(=O)Nc1ccc(-n2nc(C(F)(F)F)cc2-c2ccc3c(ccc4ccccc43)c2)cc1 [OSU03012] (first compound 0.004 µM, partner dose 1 µM)", "cleaved PARP positive nuclei fraction": 40.2}, {"smiles": "CS(=O)(=O)CCNCc1ccc(-c2ccc3ncnc(Nc4ccc(OCc5cccc(F)c5)c(Cl)c4)c3c2)o1", "note": "[lapatinib] + O=C(Nc1cccc(Cl)c1)Nc1ncc(CCNc2ncnc3ccsc23)s1 [SNS314] (first compound 0.8 µM, partner dose 0.0008 µM)", "cleaved PARP positive nuclei fraction": 177}, {"smiles": "CN1CCN(c2ccc3nc(-c4c(N)c5c(F)cccc5[nH]c4=O)[nH]c3c2)CC1", "note": "[Dovitinib] + CN(C)S(=O)(=O)c1ccc2c(c1)/C(=C/c1cc3c([nH]1)CCCC3)C(=O)N2 [SU6656] (first compound 0.1 µM, partner dose 0.4 µM)", "cleaved PARP positive nuclei fraction": 65}, {"smiles": "C[C@@H](Oc1cc(-c2cnn(C3CCNCC3)c2)cnc1N)c1c(Cl)ccc(F)c1Cl", "note": "[Crizotinib] + Cn1cncc1[C@@](N)(c1ccc(Cl)cc1)c1ccc2c(c1)c(-c1cccc(Cl)c1)cc(=O)n2C [tipifarnib] (first compound 0.2 µM, partner dose 0.01 µM)", "cleaved PARP positive nuclei fraction": 33.7}, {"smiles": "CO[C@H]1C[C@@H]2CC[C@@H](C)[C@@](O)(O2)C(=O)C(=O)N2CCCC[C@H]2C(=O)O[C@H]([C@H](C)C[C@@H]2CC[C@@H](OCCO)[C@H](OC)C2)CC(=O)[C@H](C)/C=C(\\C)[C@@H](O)[C@@H](OC)C(=O)[C@H](C)C[C@H](C)/C=C/C=C/C=C/1C", "note": "[everolimus] + O=C(Nc1cccc(Cl)c1)Nc1ncc(CCNc2ncnc3ccsc23)s1 [SNS314] (first compound 0.02 µM, partner dose 0.0008 µM)", "cleaved PARP positive nuclei fraction": 146}, {"smiles": "O=C(O)c1ccc2c(c1)nc(Nc1cccc(Cl)c1)c1ccncc12", "note": "+ NC(=O)Nc1cc(-c2cccc(F)c2)sc1C(=O)N[C@H]1CCCNC1 [AZD7762] (first compound 0.4 µM, partner dose 0.02 µM)", "cleaved PARP positive nuclei fraction": 154}, {"smiles": "Cn1c(=O)n(-c2ccc(C(C)(C)C#N)cc2)c2c3cc(-c4cnc5ccccc5c4)ccc3ncc21", "note": "+ O=C(O)c1ccc(-c2c[nH]c3ncc(-c4ccccc4)cc23)cc1C1CCCC1 [GSK650394] (first compound 0.004 µM, partner dose 0.16 µM)", "cleaved PARP positive nuclei fraction": 200}, {"smiles": "O=C(O)c1ccc2c(c1)nc(Nc1cccc(Cl)c1)c1ccncc12", "note": "+ O=C(O)c1ccc(-c2c[nH]c3ncc(-c4ccccc4)cc23)cc1C1CCCC1 [GSK650394] (first compound 0.4 µM, partner dose 0.16 µM)", "cleaved PARP positive nuclei fraction": 28.4}, {"smiles": "CC(C)C[C@H](NC(=O)[C@H](Cc1ccccc1)NC(=O)c1cnccn1)B(O)O", "note": "[Bortezomib] + O=C(CCCCCCC(=O)Nc1ccccc1)NO [vorinostat] (first compound 0.001 µM, partner dose 0.08 µM)", "cleaved PARP positive nuclei fraction": 47.5}, {"smiles": "O=C(O)c1ccc2c(c1)nc(Nc1cccc(Cl)c1)c1ccncc12", "note": "+ O=C(Nc1cccc(Cl)c1)Nc1ncc(CCNc2ncnc3ccsc23)s1 [SNS314] (first compound 0.4 µM, partner dose 0.0008 µM)", "cleaved PARP positive nuclei fraction": 112}, {"smiles": "Nc1nc(F)nc2c1ncn2[C@@H]1O[C@H](CO)[C@@H](O)[C@@H]1O", "note": "[fludarabine] + C=CCn1c(=O)c2cnc(Nc3ccc(N4CCN(C)CC4)cc3)nc2n1-c1cccc(C(C)(C)O)n1 [MK1775] (first compound 0.2 µM, partner dose 0.02 µM)", "cleaved PARP positive nuclei fraction": 76.5}, {"smiles": "Nc1ccn([C@@H]2O[C@H](CO)[C@@H](O)C2(F)F)c(=O)n1", "note": "[gemcitabine] + COc1cc(Nc2ncc(F)c(Nc3ccc4c(n3)NC(=O)C(C)(C)O4)n2)cc(OC)c1OC [Tamatinib] (first compound 0.0004 µM, partner dose 0.4 µM)", "cleaved PARP positive nuclei fraction": 106}, {"smiles": "Cn1c(=O)n(-c2ccc(C(C)(C)C#N)cc2)c2c3cc(-c4cnc5ccccc5c4)ccc3ncc21", "note": "+ COc1cc2c(Oc3ccc4[nH]c(C)cc4c3F)ncnc2cc1OCCCN1CCCC1 [cediranib] (first compound 0.004 µM, partner dose 0.4 µM)", "cleaved PARP positive nuclei fraction": 150}]}]}
